Measured values reported in publication PMC9342958.
Numbering of substitutions follows the chain as printed. Names may count otherwise. These are yes or no findings as the source states them, for the method shown. Binding seen in cells or lysates may run through a third protein. Some results given as binding are weak or reduced against the parent protein; the word gives no strength. For some of these results: Sequences can lack the tags named with a protein. Each block holds one molecule with its values, some of them ahead of it.

Protein sequences, listed by entry. Tags and fused reporters are not part of them.
UniProt Q9UDY8: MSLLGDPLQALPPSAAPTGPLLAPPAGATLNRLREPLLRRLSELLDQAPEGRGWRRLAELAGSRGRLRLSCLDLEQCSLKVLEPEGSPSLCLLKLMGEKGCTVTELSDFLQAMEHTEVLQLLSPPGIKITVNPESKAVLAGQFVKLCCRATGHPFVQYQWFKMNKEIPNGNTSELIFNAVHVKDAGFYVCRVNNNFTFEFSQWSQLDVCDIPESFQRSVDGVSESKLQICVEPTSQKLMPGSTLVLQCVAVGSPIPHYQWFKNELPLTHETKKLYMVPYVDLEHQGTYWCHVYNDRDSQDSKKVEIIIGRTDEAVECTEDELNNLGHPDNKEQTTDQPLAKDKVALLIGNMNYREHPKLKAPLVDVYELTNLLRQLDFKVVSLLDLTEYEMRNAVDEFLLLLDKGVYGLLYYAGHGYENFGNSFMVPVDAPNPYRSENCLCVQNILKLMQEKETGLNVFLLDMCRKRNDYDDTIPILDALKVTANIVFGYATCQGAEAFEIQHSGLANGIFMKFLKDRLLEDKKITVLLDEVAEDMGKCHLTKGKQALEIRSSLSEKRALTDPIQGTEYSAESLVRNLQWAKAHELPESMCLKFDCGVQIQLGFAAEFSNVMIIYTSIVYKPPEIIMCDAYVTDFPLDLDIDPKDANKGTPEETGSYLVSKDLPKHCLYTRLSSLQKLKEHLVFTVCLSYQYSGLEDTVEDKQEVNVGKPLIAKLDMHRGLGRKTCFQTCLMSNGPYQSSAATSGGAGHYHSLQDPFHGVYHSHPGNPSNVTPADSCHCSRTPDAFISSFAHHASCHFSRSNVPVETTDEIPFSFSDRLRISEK

Key:
[1] = molecular target: MALT1 full-length fused to mEos3.1 (human) (UniProt Q9UDY8); assay: FRET or BRET; DAmFRET (Distributed Amphifluoric FRET) in living S. cerevisiae: protein fused to mEos3.1, GAL promoter, about 16 hr in galactose, part of mEos3.1 photoconverted to the acceptor form, AmFRET against expression level by flow cytometry
[2] = molecular target: MALT1 full-length fused to mEos3.2 (human) (UniProt Q9UDY8); assay: FRET or BRET; DAmFRET in HEK293T cells: protein fused to mEos3.2, 48 hr after transfection, cells fixed in 4% PFA, photoconverted, AmFRET against expression level by flow cytometry
[3] = molecular target: CARD9 CARD R18W fused to mEos3.1 (human) (UniProt Q9H257); assay: FRET or BRET; DAmFRET (Distributed Amphifluoric FRET) in living S. cerevisiae: protein fused to mEos3.1, GAL promoter, about 16 hr in galactose, part of mEos3.1 photoconverted to the acceptor form, AmFRET against expression level by flow cytometry
[4] = molecular target: CARD9 CARD G72S fused to mEos3.1 (human) (UniProt Q9H257); assay: as above
[5] = molecular target: CARD9 CARD R35Q fused to mEos3.1 (human) (UniProt Q9H257); assay: as above
[6] = molecular target: CARD9 CARD R57H fused to mEos3.1 (human) (UniProt Q9H257); assay: as above
[7] = molecular target: T1, BCL10 R36E full-length fused to mEos3.1 (human), O95999; assay: as above; details: remark: other sources report otherwise
T1 chain: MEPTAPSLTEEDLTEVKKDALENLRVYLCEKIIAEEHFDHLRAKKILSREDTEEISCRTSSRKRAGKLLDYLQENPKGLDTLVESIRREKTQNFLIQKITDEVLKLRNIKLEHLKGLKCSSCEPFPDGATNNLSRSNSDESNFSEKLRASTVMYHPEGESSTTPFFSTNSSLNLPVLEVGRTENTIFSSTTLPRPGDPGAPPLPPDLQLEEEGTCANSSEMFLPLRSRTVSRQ

[8] = molecular target: BCL10 R58Q full-length fused to mEos3.1 (human) (UniProt O95999); assay: as above
[9] = molecular target: BCL10 R58L full-length fused to mEos3.1 (human) (UniProt O95999); assay: as above
[10] = molecular target: BCL10 E53R full-length fused to mEos3.1 (human) (UniProt O95999); assay: as above

Molecule: MALT1 full-length fused to mEos3.1 (from UniProt Q9UDY8 1-824)
binding [1]: no binding

B3: CARD9 CARD R35Q fused to mEos3.1 (domain or fragment, UniProt Q9H257 6-98)
chain: NDDECWSVLEGFRVTLTSVIDPSRITPYLQQCKVLNPDDEEQVLSDPNLVIRKRKVGVLLDILQRTGHKGYVAFLESLELYYPQLYKKVTGKE
binding [5]: no binding

B4: CARD9 CARD R57H fused to mEos3.1 (domain or fragment, UniProt Q9H257 6-98)
chain: B3 chain with Q30R, R52H
binding [6]: no binding

B8: BCL10 E53R full-length fused to mEos3.1 (protein, UniProt O95999 1-233)
chain: T1 chain with E36R, E53R
binding [10]: no binding

Now from value to molecule:

binding [2]: no binding
Molecule: MALT1 full-length fused to mEos3.2 (from UniProt Q9UDY8 1-824)

binding [3]: no binding
B1: CARD9 CARD R18W fused to mEos3.1 (domain or fragment, UniProt Q9H257 6-98)
chain: B3 chain with R13W, Q30R

binding [4]: no binding
B2: CARD9 CARD G72S fused to mEos3.1 (domain or fragment, UniProt Q9H257 6-98)
chain: B3 chain with Q30R, G67S

binding [7]: binds
B5: BCL10 R36E full-length fused to mEos3.1, O95999 1-233 (protein)
chain: T1 chain

binding [8]: binds
B6: BCL10 R58Q full-length fused to mEos3.1 (protein, UniProt O95999 1-233)
chain: T1 chain with E36R, R58Q

binding [9]: binds
B7: BCL10 R58L full-length fused to mEos3.1 (protein, UniProt O95999 1-233)
chain: T1 chain with E36R, R58L
